Results published in patent US8093068 (Janssen / Centocor, dated 2012).
Where a chain is given by its changes, count along the chain named. No constants are given. Whether binding was seen depends on the method and setting. Some binding calls cover weakened binding; strength is not graded here. One block for each binder: values may come before it.

Amino acid sequences for entries named in this document (tags omitted). Residues count along the entry.
UniProt O15455, residues 24-704: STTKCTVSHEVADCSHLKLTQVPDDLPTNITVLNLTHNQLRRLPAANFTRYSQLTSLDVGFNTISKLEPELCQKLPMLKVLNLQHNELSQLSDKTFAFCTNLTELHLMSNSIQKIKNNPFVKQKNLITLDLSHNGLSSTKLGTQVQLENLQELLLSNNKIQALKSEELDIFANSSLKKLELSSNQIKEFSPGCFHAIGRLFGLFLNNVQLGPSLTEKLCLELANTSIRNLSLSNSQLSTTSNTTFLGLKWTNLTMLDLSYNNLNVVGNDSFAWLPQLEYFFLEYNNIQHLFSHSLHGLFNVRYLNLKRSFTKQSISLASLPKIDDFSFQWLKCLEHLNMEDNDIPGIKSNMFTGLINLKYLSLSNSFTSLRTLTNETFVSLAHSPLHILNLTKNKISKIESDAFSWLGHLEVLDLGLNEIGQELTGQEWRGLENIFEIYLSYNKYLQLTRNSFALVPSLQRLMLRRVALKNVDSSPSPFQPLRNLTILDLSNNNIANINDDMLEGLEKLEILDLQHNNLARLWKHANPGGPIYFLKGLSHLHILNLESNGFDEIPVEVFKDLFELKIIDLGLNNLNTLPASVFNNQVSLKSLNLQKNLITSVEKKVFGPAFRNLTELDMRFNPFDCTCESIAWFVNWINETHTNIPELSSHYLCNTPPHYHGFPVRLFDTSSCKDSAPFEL

How the values were obtained:
[1] = molecular target: soluble human TLR3 extracellular domain (human) (UniProt O15455); experiment: ELISA on coated human TLR3 extracellular domain
[2] = molecular target: T1, soluble human TLR3 extracellular domain (human, UniProt O15455 24-704); experiment: ELISA on coated human TLR3 extracellular domain
T1 construct: extracellular domain; Coated on the ELISA plate; also called hTLR3; extracellular domain of human TLR3

B3: human-adapted anti-TLR3 mAb LV1/HV5 (antibody, V domains shown)
VH: QVQLVQSGAEVKKPGASVKVSCKASGYTFTTYWIHWVRQATGQGLEWMGEINPNNGRINYNEKFKTRVTMTRNTSISTAYMELSSLRSEDTAVYYCARVGVMITTFPYWGQGTLVTVSS
VL: DIQMTQSPSSLSASVGDRVTITCRASGNIHNYLAWYQQKPGKAPKLLIYNAKTLADGVPSRFSGSGSGTDFTLTISSLQPEDFATYYCQHFWSTPFTFGQGTKLEIK
binding [2]: binds

B4: human-adapted anti-TLR3 mAb LV1/HV1 (antibody, V domains shown)
VH: B3 VH with T41P, G44R, M70I, N73D, I76A
VL: B3 VL
binding [2]: binds

The next lines start with the values.

binding [1]: binds
B1: human-adapted anti-TLR3 mAb LV5/HV5 (antibody, V domains shown)
VH: B3 VH
VL: B3 VL with A43V, F83V, Q100G, L104V

binding [2]: binds
B2: human-adapted anti-TLR3 mAb LV5/HV4 (printed as LV5/LV4) (antibody, V domains shown)
VH: B3 VH with T41P, N73D, S85R, E89D
VL: B3 VL with A43V, F83V, Q100G, L104V
